# From publication PMC11447708, “Comprehensive Exploration of Bromophenol Derivatives: Promising Antibacterial Agents against SA and MRSA” (ACS Omega, 2024)
# Tested on: P. aeruginosa
# Test: microbroth dilution assay (MIC, resazurin)
# Type: cell-based, Pseudomonas aeruginosa
# Conditions: cytotoxicity IC50 (μM) HEK-293 / MIC (μM) P. aeruginosa
# Protocol: The antibacterial efficacy of the chosen compounds was assessed through the microbroth dilution assay conducted in 96-well culture plates.[21] A stock solution with a concentration of 20 mg/mL was prepared in dimethyl sulfoxide (DMSO). Subsequently, autoclaved nutrient broth (100 μL) was introduced into the culture plate wells, with the initial row of the microtiter plate receiving 100 μL of the test material. 2-fold serial dilutions of the test compounds were then meticulously executed. To serve as an indicator, 20 μL of 2× resazurin solution was added to each well. Finally, 10 μL of the bacterial suspension was incorporated into each well, yielding a final concentration of 5 × 10^6 CFU/mL. The experiment was conducted in duplicate, and the plates were incubated at 37 °C. After 18 h, the plates were scrutinized for any change in color indicative of bacterial growth.
row,SMILES,therapeutic index (IC50/MIC) P. aeruginosa
1,"CC(=O)c1c(O)ccc(Br)c1O [compound 2, 3-Bromo-2,6-dihydroxyacetophenone]",3
2,"CC(=O)c1cc(Br)c(O)c(Br)c1O [compound 3, 3,5-Dibromo-2,4-dihydroxyacetophenone]",2
